Here are results for three substances from article PMC11277258.

Amino acid sequences for entries named in this document (tags omitted). Residues count along the entry.
UniProt P36021: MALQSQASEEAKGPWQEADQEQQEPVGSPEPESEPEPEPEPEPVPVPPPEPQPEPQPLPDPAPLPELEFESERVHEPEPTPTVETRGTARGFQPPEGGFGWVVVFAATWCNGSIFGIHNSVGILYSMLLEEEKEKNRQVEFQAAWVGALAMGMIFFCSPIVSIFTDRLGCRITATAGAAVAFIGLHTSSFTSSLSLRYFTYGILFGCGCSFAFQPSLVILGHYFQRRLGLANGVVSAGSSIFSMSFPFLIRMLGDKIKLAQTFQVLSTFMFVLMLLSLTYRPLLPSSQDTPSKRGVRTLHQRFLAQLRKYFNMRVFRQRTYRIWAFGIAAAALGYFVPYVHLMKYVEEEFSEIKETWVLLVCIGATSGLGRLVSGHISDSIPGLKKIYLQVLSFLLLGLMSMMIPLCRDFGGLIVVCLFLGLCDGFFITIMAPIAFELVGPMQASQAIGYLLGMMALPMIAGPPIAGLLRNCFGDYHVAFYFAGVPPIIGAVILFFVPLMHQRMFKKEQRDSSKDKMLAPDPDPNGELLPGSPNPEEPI
UniProt P32245: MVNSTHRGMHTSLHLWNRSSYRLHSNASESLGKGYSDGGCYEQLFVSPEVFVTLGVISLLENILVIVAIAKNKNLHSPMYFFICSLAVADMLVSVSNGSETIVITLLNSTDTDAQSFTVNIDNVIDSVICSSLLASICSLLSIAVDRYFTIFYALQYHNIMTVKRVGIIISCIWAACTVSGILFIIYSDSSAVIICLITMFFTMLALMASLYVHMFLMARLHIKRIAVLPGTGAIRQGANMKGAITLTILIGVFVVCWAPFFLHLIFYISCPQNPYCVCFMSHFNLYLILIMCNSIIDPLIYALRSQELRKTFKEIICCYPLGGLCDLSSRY
UniProt Q9NRW1: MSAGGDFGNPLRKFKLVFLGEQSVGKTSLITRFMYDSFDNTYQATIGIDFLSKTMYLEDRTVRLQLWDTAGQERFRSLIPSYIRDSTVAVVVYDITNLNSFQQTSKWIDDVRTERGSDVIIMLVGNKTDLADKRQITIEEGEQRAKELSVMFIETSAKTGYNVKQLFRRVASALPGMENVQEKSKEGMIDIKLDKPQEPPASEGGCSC
UniProt P16473, residues 21-764: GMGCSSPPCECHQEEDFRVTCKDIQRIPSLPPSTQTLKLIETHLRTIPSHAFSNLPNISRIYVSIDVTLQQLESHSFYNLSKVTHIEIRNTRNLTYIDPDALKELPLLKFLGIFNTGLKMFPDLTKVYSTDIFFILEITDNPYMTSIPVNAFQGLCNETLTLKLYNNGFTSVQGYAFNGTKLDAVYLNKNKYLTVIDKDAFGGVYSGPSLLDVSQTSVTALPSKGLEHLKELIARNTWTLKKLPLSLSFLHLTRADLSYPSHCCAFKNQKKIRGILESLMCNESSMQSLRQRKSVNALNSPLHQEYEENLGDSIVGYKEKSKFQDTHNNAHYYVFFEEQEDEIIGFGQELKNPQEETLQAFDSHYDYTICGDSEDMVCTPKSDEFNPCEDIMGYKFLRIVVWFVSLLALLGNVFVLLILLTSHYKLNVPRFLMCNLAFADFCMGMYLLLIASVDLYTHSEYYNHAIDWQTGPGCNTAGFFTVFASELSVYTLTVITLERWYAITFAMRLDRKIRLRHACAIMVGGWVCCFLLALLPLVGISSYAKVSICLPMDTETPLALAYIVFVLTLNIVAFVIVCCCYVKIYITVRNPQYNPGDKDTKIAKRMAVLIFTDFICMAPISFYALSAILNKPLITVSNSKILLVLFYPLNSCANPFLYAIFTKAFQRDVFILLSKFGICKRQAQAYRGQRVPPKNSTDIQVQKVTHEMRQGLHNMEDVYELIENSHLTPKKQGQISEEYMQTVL

No constants are given. Whether binding was seen depends on the method and setting. In cells and extracts the contact can be indirect. Some entries that bind do so weakly or less than the wild type.

Experiment [1] concerns the target monocarboxylate transporter 8, C-terminally tagged with HaloTag (MCT8-HT) (human) (UniProt P36021). Nature of the experiment: FRET or BRET; NanoBRET Donor Saturation Assay in HEK293 cells; increasing amount of donor (MC4R-NL, Rab6b-NL, TSHR-NL) with constant amount of acceptor (MCT8-HT). For orientation: In BRET a luciferase serves as donor, and the signal depends on an acceptor being close.

The target is the same in experiment [2]. Put plainly: FRET or BRET; NanoBRET in live HEK293 cells; donor (NL-tagged) and acceptor (MCT8-HT) DNA co-transfected 1:8 (100 ng:800 ng); HT-Ligand 618; emission at 460 nm and 618 nm; DMSO background subtracted; mBU.

Take “melanocortin-4 receptor, C-terminally tagged with NanoLuc (MC4R-NL) (from UniProt P32245 1-332)”: the binding result in experiment [1] is recorded as “binds”. The same measure, in the same setting: the result for “Ras-related protein Rab6b, C-terminally tagged with NanoLuc (Rab6b-NL) (from UniProt Q9NRW1 1-208)” reads “no binding”. In the case of “thyroid-stimulating hormone receptor, C-terminally tagged with NanoLuc (TSHR-NL) (from UniProt P16473 21-764)”, the binding result in experiment [1] and in experiment [2] was “binds” in each case.
